Laboratory results: publication PMC8579465
No constants are given. Whether binding was seen depends on the method and setting. In cells and extracts the contact can be indirect. Some binding calls cover weakened binding; strength is not graded here.

Amino acid sequences for entries named in this document (tags omitted).
UniProt Q92793: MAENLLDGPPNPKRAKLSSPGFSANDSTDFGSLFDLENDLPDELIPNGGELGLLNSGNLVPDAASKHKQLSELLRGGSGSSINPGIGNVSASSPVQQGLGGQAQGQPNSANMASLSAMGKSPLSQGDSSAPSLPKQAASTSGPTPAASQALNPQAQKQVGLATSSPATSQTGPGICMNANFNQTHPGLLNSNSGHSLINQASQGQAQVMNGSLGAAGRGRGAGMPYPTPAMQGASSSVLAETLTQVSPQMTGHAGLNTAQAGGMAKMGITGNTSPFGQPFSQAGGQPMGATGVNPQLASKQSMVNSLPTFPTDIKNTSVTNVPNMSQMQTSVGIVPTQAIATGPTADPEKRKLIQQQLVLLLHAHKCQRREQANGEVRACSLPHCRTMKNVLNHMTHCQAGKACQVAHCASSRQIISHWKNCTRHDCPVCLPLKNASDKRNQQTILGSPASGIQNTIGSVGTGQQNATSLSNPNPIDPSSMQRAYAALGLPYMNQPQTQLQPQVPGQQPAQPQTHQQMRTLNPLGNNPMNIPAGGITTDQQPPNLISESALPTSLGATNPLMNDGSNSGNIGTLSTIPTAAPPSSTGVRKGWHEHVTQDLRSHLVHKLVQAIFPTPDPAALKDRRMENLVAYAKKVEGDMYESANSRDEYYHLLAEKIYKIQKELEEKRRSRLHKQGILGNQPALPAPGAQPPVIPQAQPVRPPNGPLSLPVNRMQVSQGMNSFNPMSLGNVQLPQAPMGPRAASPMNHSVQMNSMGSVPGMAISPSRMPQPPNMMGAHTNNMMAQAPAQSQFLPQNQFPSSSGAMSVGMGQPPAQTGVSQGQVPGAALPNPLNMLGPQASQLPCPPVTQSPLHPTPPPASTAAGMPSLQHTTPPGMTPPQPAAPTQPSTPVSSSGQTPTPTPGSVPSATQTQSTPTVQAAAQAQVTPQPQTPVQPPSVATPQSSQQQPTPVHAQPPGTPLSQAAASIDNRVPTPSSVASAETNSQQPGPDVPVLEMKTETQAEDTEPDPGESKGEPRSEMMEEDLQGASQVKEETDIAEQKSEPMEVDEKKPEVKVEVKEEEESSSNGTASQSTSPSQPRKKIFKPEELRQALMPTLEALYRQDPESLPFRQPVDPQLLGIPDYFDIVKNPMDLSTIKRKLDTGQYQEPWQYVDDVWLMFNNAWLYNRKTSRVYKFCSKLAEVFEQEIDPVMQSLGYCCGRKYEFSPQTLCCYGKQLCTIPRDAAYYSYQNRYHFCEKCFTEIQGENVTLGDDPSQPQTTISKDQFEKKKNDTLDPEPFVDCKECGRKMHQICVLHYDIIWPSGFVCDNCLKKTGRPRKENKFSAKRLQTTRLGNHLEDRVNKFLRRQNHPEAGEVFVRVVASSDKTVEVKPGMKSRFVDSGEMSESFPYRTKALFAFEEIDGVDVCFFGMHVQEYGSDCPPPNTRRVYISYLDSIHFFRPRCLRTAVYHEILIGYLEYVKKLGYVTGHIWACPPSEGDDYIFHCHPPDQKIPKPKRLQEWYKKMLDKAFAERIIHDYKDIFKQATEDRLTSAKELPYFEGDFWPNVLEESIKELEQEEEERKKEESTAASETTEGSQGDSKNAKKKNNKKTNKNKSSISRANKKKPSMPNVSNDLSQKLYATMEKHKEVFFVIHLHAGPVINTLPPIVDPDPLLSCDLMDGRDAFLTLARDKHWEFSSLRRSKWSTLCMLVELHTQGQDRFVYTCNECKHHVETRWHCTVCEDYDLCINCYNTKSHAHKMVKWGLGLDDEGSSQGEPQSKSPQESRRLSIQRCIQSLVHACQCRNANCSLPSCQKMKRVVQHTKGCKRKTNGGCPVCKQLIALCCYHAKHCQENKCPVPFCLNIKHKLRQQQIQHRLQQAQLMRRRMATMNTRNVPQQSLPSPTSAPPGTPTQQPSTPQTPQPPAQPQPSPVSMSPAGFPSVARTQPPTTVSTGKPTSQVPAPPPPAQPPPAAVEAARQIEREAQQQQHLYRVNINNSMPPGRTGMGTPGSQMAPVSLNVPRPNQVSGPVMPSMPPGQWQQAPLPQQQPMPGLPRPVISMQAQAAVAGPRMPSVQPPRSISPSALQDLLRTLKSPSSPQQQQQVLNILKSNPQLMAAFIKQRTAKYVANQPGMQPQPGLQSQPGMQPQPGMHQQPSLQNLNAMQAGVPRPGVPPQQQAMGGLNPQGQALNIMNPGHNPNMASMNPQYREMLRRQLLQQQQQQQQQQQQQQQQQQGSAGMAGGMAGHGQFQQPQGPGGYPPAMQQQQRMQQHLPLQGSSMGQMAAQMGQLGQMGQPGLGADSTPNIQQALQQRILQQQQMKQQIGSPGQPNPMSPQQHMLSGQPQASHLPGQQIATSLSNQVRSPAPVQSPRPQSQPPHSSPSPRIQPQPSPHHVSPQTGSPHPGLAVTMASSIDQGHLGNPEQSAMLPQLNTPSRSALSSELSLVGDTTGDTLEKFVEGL
UniProt P05412: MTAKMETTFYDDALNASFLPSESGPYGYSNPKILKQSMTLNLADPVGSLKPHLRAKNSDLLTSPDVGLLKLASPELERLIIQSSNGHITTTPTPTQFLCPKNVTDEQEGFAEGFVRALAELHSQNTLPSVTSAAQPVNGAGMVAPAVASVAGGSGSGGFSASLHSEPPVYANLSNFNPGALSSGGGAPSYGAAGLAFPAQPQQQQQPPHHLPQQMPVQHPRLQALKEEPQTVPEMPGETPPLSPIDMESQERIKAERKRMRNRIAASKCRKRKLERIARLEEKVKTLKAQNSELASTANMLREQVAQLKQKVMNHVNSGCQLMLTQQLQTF

Legend:
[1] = target: T1, Ets-1 (human (endogenous in HUVECs)) (UniProt P14921); experiment: co-IP; cells treated with ox-LDL, lysed in RIPA; anti-Ets-1 or anti-CBP monoclonal antibody on protein A/G magnetic beads, 4 °C overnight; precipitates read by Western blot
T1 sequence: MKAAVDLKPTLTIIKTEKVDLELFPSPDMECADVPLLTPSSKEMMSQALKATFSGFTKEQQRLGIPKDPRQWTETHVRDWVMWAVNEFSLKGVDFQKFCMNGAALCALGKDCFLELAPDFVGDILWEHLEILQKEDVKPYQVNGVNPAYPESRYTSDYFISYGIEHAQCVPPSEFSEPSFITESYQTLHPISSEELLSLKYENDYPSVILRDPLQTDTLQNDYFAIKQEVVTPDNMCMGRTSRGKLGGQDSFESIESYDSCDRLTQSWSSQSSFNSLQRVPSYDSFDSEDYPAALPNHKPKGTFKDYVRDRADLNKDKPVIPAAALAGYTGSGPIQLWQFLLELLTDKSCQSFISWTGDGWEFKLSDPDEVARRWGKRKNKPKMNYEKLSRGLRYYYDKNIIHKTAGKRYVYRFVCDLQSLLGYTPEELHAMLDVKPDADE

[2] = target: CBP (human (endogenous in HUVECs)) (UniProt Q92793); experiment: as above

Substance | binding [1] | binding [2]
c-jun (from UniProt P05412 1-331) | binds | binds
CBP (from UniProt Q92793 1-2442) | binds | 
